Results taken from article PMC10985070.
Results are given in words; binding and its absence hold for the method and conditions named. Binding seen in cells or lysates may run through a third protein. Some binding calls cover weakened binding; strength is not graded here.

Amino acid sequences for entries named in this document (tags omitted).
UniProt Q02248: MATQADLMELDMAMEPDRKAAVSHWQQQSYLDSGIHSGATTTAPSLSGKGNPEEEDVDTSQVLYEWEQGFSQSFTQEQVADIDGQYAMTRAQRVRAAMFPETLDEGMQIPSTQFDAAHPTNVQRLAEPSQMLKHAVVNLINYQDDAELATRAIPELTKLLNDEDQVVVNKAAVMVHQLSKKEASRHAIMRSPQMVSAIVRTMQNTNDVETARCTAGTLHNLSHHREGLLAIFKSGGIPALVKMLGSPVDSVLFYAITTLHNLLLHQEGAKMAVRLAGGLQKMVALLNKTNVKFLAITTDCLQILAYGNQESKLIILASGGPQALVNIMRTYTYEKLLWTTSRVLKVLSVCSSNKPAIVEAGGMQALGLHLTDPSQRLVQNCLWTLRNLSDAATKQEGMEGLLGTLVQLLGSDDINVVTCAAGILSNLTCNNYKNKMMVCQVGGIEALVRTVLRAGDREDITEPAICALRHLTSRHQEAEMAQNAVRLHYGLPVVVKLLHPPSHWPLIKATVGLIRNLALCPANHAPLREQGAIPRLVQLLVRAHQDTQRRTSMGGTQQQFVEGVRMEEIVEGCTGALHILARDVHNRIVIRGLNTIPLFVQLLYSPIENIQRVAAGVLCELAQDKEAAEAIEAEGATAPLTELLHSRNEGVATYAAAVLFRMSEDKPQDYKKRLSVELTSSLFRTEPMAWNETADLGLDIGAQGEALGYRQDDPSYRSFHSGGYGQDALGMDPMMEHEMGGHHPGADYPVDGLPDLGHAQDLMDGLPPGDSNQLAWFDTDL
UniProt Q00417: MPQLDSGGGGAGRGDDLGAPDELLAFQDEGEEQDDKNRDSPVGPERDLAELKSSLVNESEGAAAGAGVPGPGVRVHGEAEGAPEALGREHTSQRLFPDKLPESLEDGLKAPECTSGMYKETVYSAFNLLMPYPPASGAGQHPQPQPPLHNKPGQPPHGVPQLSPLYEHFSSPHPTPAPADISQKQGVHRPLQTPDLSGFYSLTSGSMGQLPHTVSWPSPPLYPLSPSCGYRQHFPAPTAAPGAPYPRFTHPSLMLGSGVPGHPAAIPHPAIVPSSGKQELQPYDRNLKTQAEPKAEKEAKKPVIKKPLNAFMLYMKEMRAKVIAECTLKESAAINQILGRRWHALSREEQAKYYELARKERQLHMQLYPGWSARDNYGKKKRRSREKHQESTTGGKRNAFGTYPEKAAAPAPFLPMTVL

Biological target: β-catenin (mouse (endogenous in intestinal ILC3s)) (UniProt Q02248)
Assay: co-IP; lysate of mouse ILC3s treated with DMSO or CHIR-99021 for 24 hours; IP with anti-β-catenin antibody or IgG1 isotype control on protein A + G magnetic beads; immunoblot of TCF-1

binding: binds
Substance: TCF-1 (from UniProt Q00417 1-419)
